According to patent US20050136536A1, “Embryonic epithelial cells” (priority 2003, published 2005):
At least one structure is not confirmed: it was looked up by name or label, or the drawing left a doubt.

Columns and labels:
Type in all cases: cell-based, human
hES cells = test: hES cell attachment, growth and proliferation on "hit" polymer arrays with or without retinoic acid; conditions: hit array
cytokeratin 7 [1] = test: cytokeratin 7 positive cells per spot on "hit" polymer arrays; conditions: hit array, absence vs presence of retinoic acid, after six days
vimentin = vimentin staining of hES cells on "hit" polymer arrays; conditions: hit array, absence vs presence of retinoic acid, after six days
cytokeratin 7 [2] = test: differentiation of hES cells on gelatin-coated glass slides, cytokeratin 7 staining; conditions: 1 μM retinoic acid, serum medium, stained after 6 or 8 days
Experimental: H9 cells (Thomson, J. A., et al., “Embryonic stem cells lines derived from human blastocysts”, Science 282, 1145-1147 (1998)) were grown as described in Spradling, A., et al., “Stem cells find their niche”, Nature 414, 98-104 (2001), the entire contents of which are incorporated herein by reference. C2C12 cells were grown as described in Yaffee, D. & Saxel, O., “Serial passaging and differentiation of myogenic cells isolated from dystrophic mouse muscle”, Nature 270, 725-7 (1977). Specifically, hES cells (H9 clone) were grown on mouse embryo fibroblasts (Cell Essential) in KnockOut Medium (Gibco-BRL, Gaithersburg, Md.), a modified version of Dulbeco's modified Eagle's medium optimized for ES cells (Itskovitz-Eldor, et. al., (2000) Mol. Med. 6, 88-95, the contents of which are incorporated herein by reference). Tissue cover plates were covered with 0.1% gelatin (Sigma). Culture were grown in 5% CO2 and were routinely passaged every 5-6 days after disaggregating with 1 mg/ml collagenase type IV (Gibco-BRL). To induce formation of EBs, hES colonies were digested using either 1 mg/ml collagenase type IV or trypsin/EDTA (0.1%/1 mM) and transferred to petri dishes to allow their aggregation and prevent adherence to the plate. […]

CC1=C(/C=C/C(C)=C/C=C/C(C)=C/C(=O)O)C(C)(C)CCC1 [retinoic acid]
effect of presence of retinoic acid on growth after one day (hES cells; 24 hours): little effect after 24 hours
cell size and packing in absence of retinoic acid (hES cells; absence vs presence of retinoic acid, after six days): cells were smaller and more tightly packed
expression of cytokeratin 7 in absence of retinoic acid (cytokeratin 7 [1]): much less expression of cytokeratin 7 was evident
vimentin expression in absence of retinoic acid (vimentin): vimentin was generally upregulated
development of cytokeratin 7-positive cells (cytokeratin 7 [2]): increases the development of cytokeratin 7-positive cells
